Our source for the log2 fold change values is the supplement of paper PMC12819154, “High-throughput peptide-centric local stability assay extends protein–ligand identification to membrane proteins, tissues and bacteria” (Nature Structural & Molecular Biology, 2025).

Amino acid sequences for entries named in this document (tags omitted). A change or cut given only in a name is not applied to a line headed by its entry.
UniProt Q86U86, whole entry: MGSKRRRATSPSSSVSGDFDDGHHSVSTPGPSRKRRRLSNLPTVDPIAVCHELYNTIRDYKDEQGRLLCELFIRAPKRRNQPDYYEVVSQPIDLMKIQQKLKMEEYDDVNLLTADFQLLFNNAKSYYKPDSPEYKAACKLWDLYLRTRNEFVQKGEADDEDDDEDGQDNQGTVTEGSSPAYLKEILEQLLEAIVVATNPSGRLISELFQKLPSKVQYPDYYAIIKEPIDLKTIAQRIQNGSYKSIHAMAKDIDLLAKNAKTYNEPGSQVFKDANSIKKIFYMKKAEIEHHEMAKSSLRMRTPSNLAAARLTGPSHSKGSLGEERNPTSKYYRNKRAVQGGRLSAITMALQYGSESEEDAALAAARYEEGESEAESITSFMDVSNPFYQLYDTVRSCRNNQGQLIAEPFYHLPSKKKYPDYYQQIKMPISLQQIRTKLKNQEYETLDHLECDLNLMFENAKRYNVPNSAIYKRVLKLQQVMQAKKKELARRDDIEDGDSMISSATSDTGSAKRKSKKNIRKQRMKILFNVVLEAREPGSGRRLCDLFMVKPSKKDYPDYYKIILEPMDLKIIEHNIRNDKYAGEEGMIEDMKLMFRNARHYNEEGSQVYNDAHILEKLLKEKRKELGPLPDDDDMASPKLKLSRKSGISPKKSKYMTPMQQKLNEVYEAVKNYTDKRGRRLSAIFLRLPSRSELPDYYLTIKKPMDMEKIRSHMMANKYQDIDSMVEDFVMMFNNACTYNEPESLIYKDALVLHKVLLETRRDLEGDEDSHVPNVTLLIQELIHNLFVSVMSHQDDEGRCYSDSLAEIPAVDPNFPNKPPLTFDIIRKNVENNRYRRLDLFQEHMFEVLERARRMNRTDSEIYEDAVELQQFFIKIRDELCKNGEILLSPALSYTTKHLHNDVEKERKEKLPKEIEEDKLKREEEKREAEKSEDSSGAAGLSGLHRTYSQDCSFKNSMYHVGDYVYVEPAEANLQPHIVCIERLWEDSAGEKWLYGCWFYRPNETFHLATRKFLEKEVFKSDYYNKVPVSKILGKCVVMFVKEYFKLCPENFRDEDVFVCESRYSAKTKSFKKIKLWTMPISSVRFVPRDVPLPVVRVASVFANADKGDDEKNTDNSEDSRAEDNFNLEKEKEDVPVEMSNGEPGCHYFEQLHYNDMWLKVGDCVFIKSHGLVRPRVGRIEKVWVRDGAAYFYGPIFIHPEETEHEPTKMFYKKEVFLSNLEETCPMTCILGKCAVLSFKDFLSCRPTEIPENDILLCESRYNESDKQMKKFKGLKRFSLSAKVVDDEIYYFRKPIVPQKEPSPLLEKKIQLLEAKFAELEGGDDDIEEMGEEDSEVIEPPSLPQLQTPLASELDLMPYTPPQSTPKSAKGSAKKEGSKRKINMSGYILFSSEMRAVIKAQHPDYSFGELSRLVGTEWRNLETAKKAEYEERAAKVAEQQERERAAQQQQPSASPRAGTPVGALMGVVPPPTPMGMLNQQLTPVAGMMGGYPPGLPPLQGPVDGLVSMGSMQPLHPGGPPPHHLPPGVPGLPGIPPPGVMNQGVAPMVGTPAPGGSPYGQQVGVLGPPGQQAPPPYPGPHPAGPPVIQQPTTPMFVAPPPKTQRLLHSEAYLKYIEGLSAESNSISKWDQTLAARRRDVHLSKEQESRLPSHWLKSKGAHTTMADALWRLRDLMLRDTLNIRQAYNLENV
UniProt Q86UT8: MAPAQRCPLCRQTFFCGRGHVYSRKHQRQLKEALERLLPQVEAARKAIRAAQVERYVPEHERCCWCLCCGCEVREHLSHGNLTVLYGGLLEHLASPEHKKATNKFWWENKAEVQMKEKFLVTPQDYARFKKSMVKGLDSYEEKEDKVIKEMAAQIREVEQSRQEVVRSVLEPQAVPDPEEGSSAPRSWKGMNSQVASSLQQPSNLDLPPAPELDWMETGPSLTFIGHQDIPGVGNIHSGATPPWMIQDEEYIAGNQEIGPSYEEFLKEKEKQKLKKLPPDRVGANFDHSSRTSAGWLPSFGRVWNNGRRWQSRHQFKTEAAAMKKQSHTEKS
UniProt Q7Z449: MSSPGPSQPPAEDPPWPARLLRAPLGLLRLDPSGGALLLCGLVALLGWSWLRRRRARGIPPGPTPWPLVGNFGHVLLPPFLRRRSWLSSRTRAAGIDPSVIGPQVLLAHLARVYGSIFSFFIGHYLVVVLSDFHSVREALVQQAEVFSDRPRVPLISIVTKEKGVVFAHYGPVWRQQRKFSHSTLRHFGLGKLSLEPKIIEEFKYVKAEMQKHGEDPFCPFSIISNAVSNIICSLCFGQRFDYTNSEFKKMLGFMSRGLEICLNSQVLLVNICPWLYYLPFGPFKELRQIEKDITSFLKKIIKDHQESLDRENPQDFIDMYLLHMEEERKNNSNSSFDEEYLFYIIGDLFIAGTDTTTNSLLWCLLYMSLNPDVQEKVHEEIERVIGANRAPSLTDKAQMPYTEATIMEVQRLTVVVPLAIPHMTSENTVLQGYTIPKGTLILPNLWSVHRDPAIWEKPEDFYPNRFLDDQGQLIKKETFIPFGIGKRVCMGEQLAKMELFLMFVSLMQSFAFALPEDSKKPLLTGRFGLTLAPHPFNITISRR
UniProt Q86TN4: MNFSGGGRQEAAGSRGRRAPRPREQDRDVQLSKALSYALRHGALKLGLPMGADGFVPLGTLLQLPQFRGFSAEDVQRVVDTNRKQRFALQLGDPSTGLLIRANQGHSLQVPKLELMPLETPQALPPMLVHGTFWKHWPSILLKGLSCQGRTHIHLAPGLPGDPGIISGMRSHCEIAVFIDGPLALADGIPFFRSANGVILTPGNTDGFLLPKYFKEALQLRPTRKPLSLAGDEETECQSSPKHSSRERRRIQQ
UniProt Q70SY1: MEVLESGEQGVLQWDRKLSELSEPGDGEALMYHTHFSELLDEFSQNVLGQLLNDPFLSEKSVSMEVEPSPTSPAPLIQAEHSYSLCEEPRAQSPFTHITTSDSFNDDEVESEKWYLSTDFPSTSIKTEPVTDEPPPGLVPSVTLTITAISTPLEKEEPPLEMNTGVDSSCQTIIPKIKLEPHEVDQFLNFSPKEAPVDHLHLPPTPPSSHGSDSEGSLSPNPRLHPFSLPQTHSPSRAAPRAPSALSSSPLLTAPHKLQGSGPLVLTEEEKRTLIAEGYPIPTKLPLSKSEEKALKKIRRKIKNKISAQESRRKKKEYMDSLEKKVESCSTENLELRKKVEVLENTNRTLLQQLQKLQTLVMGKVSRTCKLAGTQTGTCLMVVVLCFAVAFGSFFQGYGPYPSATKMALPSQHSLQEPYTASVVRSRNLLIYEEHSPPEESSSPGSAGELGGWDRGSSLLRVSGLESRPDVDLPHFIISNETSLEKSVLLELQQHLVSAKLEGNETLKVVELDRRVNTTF
UniProt Q7Z6W7: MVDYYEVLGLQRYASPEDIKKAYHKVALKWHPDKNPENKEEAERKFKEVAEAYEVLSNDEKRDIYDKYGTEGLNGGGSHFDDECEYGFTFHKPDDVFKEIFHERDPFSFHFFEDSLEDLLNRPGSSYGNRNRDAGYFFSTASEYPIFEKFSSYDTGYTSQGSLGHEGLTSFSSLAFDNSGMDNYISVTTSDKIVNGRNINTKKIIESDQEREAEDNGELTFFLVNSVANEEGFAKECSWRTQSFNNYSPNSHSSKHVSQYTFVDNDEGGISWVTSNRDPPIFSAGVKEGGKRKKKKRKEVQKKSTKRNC
UniProt Q6ZTB9: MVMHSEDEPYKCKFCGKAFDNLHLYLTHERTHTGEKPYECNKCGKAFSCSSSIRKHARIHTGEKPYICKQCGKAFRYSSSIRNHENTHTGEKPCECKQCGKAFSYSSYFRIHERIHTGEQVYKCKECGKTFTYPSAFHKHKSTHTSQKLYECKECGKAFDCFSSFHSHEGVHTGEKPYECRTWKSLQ
UniProt Q6ZSR9: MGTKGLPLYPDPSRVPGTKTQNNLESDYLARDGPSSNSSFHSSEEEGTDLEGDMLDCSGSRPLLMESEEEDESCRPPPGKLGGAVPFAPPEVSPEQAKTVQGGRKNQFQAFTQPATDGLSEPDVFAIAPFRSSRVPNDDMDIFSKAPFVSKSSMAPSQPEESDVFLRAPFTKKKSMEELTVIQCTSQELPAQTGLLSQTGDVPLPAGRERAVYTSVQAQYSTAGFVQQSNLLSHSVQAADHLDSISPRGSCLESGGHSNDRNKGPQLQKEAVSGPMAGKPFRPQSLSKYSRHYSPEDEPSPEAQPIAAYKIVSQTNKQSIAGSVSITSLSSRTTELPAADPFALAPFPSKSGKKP
UniProt Q86T23: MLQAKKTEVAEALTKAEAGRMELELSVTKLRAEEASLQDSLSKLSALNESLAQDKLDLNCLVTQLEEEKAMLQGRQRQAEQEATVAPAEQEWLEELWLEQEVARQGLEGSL
UniProt Q7Z5L2: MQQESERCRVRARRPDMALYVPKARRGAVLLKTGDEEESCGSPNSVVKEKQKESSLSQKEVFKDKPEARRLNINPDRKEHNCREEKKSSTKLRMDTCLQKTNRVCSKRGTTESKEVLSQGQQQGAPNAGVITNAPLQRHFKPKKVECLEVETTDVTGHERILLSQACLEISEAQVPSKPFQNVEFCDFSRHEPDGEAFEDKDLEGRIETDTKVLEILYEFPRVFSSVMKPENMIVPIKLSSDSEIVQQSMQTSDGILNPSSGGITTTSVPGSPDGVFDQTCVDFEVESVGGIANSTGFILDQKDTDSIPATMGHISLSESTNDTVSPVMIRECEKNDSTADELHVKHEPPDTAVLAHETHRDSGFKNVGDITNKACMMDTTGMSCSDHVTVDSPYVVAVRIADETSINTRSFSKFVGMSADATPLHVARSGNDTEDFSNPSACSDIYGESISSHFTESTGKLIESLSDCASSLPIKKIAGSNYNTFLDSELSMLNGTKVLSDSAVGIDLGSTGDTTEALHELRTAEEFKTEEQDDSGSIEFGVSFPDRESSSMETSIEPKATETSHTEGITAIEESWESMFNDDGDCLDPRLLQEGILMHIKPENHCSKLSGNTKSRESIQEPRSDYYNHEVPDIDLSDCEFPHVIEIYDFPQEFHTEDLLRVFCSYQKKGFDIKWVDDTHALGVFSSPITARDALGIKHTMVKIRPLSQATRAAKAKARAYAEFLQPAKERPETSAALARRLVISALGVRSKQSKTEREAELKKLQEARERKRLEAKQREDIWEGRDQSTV
UniProt Q86UQ0: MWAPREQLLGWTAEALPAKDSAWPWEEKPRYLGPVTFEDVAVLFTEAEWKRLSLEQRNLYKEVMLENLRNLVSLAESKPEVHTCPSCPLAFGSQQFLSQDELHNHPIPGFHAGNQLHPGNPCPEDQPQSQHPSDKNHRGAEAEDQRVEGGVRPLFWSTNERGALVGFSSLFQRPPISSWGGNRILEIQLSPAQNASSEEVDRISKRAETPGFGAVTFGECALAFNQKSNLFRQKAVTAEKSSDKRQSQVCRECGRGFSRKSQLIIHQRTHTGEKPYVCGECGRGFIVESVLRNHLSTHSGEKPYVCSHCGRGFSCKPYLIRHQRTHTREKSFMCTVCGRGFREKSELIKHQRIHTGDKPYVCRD
UniProt Q86U28: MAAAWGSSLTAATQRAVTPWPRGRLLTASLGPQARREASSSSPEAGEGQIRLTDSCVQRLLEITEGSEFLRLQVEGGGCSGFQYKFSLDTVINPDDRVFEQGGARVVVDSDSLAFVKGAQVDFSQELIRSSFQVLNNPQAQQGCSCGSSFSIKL
UniProt Q765P7: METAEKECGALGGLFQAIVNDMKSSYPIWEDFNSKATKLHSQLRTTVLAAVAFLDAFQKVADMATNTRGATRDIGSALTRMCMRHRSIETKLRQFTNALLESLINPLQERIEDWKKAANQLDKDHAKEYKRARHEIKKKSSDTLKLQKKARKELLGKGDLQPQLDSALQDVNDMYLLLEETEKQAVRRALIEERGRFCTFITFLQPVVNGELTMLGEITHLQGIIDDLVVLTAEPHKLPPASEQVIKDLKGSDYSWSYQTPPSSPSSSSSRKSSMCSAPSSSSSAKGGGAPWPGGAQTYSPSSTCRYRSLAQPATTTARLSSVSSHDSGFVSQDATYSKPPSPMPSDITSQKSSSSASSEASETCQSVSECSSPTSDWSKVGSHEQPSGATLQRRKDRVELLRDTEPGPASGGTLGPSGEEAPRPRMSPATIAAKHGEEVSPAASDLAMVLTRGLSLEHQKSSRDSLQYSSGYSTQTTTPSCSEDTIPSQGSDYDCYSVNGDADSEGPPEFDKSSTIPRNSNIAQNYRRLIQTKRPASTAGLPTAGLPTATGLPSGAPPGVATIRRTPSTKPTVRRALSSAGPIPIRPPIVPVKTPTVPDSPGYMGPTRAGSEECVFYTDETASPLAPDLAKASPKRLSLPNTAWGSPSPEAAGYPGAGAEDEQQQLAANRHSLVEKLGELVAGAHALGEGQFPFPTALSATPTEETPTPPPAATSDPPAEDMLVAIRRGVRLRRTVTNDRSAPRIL
UniProt Q70IA6: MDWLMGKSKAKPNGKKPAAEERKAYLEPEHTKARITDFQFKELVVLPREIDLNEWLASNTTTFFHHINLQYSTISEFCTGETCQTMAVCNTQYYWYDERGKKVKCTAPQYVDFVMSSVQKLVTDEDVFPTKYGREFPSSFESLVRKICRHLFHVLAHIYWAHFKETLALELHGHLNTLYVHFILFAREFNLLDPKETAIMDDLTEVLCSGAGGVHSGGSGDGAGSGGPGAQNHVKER

Some of the results follow. Most entries show no effect beyond the scatter of the controls.

Compound in the experiment: Cc1nc(Nc2ncc(C(=O)Nc3c(C)cccc3Cl)s2)cc(N2CCN(CCO)CC2)n1 [dasatinib]
Put plainly: log2 fold change of tryptic peptide abundance, ligand vs vehicle (limited proteolysis) (log2 ratio); higher = more trypsin-susceptible (destabilized). To be noted: ligand concentration: 5 uM; sample: K562 cleared lysate.
With “PBRM1 (peptide sequence: KAEYEER, peptide start residue: 1425) (UniProt Q86U86)”, the log2 fold change was -0.375.
The figure for “DDX46 (peptide sequence: DAGNFDQNK, peptide start residue: 147) (UniProt Q7L014)” is 0.357; for “ATF7IP (peptide sequence: QVNPQNSVTVR, peptide start residue: 1088) (UniProt Q6VMQ6)” it is -0.573.
As for “UniProt Q86UT8 (peptide sequence: TSAGWLPSFGR, peptide start residue: 292)”, the log2 fold change was -0.161.
The figure for “UniProt Q7LBC6 (peptide sequence: NIIYHAVK, peptide start residue: 1738)” is -0.393.
The same measure for “CYP2U1 (peptide sequence: ELRQIEK, peptide start residue: 286) (UniProt Q7Z449)”: 0.125; for “TRPT1 (peptide sequence: THIHLAPGLPGDPGIISGMR, peptide start residue: 151) (UniProt Q86TN4)”: -0.12.
The same measure for “RRM2B (peptide sequence: SNEEPLLRK, peptide start residue: 29) (UniProt Q7LG56)”: 0.274; for “CREB3L2 (peptide sequence: SEEKALKK, peptide start residue: 290) (UniProt Q70SY1)”: 0.336; for “UniProt Q7Z6W7 (peptide sequence: WHPDKNPENKEEAER, peptide start residue: 30)”: 0.0744.
Regarding “UniProt Q6ZTB9 (peptide sequence: AFSCSSSIR, peptide start residue: 224)”, the log2 fold change is 0.0271.
The same measure for “UniProt Q6ZSR9 (peptide sequence: GLPLYPDPSR, peptide start residue: 5)”: -0.149.
The same measure for “TRMT11 (peptide sequence: EKYFSGVTK, peptide start residue: 444) (UniProt Q7Z4G4)”: 0.146; for “EPM2AIP1 (peptide sequence: EVLPEHVSVLQGVDLSPDITR, peptide start residue: 131) (UniProt Q7L775)”: 0.416.
The same measure for “MRPL52 (peptide sequence: QENALKPK, peptide start residue: 105) (UniProt Q86TS9)”: 0.222; for “WASH2P (peptide sequence: QKEQEQVR, peptide start residue: 393) (UniProt Q6VEQ5)”: -0.0469; for “DYM (peptide sequence: SLHQYAAQR, peptide start residue: 476) (UniProt Q7RTS9)”: 0.19.
On to “ZBTB33 (peptide sequence: KYPCRYCEK, peptide start residue: 521) (UniProt Q86T24)”, for which the log2 fold change stood at 0.197.
For the target “CROCCP2 (peptide sequence: MELELSVTK, peptide start residue: 21) (UniProt Q86T23)”, the log2 fold change was -0.137.
The figure for “MCM10 (peptide sequence: DCEYCQYHVQAQYK, peptide start residue: 408) (UniProt Q7L590)” is -0.597; for “UniProt Q7Z5L2 (peptide sequence: FVGMSADATPLHVAR, peptide start residue: 415)” it is 0.169; for “UniProt Q86UQ0 (peptide sequence: VEGGVRPLFWSTNER, peptide start residue: 147)” it is 0.25.
The same measure for “ISCA2 (peptide sequence: LTDSCVQR, peptide start residue: 52) (UniProt Q86U28)”: 0.337.
The same measure for “UniProt Q765P7 (peptide sequence: TPSTKPTVR, peptide start residue: 567)”: 0.554; for “TAF8 (peptide sequence: QSTNPADNYHLAR, peptide start residue: 21) (UniProt Q7Z7C8)”: 0.168.
In the case of “UniProt Q6ZMV9 (peptide sequence: LRSQLEEEK, peptide start residue: 639)”, the log2 fold change was -0.564.
On to “MOB2 (peptide sequence: LVTDEDVFPTKYGR, peptide start residue: 121) (UniProt Q70IA6)”, for which the log2 fold change is 0.272.
The figure for “STXBP4 (peptide sequence: TFEASTEK, peptide start residue: 422) (UniProt Q6ZWJ1)” is 0.623.
Turning to “TECPR1 (peptide sequence: NATGNSASGLGAGR, peptide start residue: 439) (UniProt Q7Z6L1)”, the log2 fold change was -0.0735.
